# Results: paper PMC4122391, “Analysis of Functions of VIP1 and Its Close Homologs in Osmosensory Responses of Arabidopsis thaliana”
# Biological target: T1, GST-VIP1ΔN164 (Arabidopsis thaliana) (UniProt Q9MA75)
# T1 sequence (looked up): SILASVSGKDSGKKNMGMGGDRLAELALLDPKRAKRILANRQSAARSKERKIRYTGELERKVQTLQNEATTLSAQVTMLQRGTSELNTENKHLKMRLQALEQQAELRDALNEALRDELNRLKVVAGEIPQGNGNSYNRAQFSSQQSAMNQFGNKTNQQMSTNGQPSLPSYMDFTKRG
# Experiment: competition with a labelled probe
# Settings: EMSA, CYP707A1 probe, recombinant protein, residues 165-341, protein details: N-terminal GST
# [1] = less effective than A1/A3 and rbe
Sequence,binding result [1],binding result (less effective than A1/A3)
CATGCTCCGTTGGATGT (double strand) [vs-2],binds more weakly,
CCAGTGTGGCGCTGG (double strand) [Box-II],binds more weakly,
CCCCAAAGTCCAGCTTGAAAT (double strand) [rbe (RSG-binding element)],,binds more weakly
TCAGACACGTGGCATG (double strand) [G-box],binds more weakly,

# A weaker result is weaker than the reference pair of the same experiment. Where a protein sequence is shown, tags need not be part of it. The exact form of at least one protein or probe is not confirmed. At least one verdict rests on a figure or table, not on a statement of the authors.
